We go through one substance from article PMC5943507.

Chains of the proteins cited; added tags and fusions are not shown.
UniProt P06493: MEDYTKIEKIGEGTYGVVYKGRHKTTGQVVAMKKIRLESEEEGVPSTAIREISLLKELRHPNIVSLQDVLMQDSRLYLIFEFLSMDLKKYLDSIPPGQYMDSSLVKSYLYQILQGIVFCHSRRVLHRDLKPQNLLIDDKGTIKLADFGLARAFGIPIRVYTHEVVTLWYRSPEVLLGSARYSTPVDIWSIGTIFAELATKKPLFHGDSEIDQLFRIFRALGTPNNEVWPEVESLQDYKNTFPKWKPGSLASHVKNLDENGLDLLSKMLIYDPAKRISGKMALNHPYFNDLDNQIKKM
UniProt P38936: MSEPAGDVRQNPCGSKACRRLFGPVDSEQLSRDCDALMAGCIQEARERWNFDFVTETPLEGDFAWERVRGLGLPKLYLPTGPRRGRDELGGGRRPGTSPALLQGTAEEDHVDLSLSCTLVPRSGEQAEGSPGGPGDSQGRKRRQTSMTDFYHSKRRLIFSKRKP

These are yes or no findings as the source states them, for the method shown. In cells and extracts the contact can be indirect. Some binding calls cover weakened binding; strength is not graded here.

This assay addresses cyclin-dependent kinase 1 (CDK1) (human (endogenous in H460)) (UniProt P06493). The assay is described as follows: co-IP; 200 µg of cleared cell extract of H460-p21 or H460-pCMV cells; anti-CDK1 antibody (Upstate) or control rabbit IgG; Protein G beads; eluate blotted for CDK1 and p21.

On to “cyclin-dependent kinase inhibitor 1 (p21CIP1) (from UniProt P38936 1-164)”, for which the binding result was “binds”.
